Experiment [1] deals with C-terminally myc/His tagged M76 (MCMV, Smith strain). The experiment can be described thus: co-IP; HEK293T transfected with one myc-tagged protein; IP with anti-myc antibody and protein A agarose in IP lysis buffer (20 mM Tris-HCl pH 7.5, 150 mM NaCl, 1% IGEPAL CA-630, 0.25% sodium deoxycholate, 0.1% SDS), 7 washes; blot for endogenous OGT.
Experiment [2] has as its target myc-tagged M35 (pcDNA4-M35-myc/His) (murine CMV (MCMV)). Described as above.

Results are given in words; binding and its absence hold for the method and conditions named. Binding seen in cells or lysates may run through a third protein. Tags and fused reporters may be left off the sequences shown.

B1: O-linked N-acetylglucosamine (GlcNAc) transferase (OGT), endogenous (enzyme, UniProt O15294 1-1046)
chain: MASSVGNVADSTEPTKRMLSFQGLAELAHREYQAGDFEAAERHCMQLWRQEPDNTGVLLLLSSIHFQCRRLDRSAHFSTLAIKQNPLLAEAYSNLGNVYKERGQLQEAIEHYRHALRLKPDFIDGYINLAAALVAAGDMEGAVQAYVSALQYNPDLYCVRSDLGNLLKALGRLEEAKACYLKAIETQPNFAVAWSNLGCVFNAQGEIWLAIHHFEKAVTLDPNFLDAYINLGNVLKEARIFDRAVAAYLRALSLSPNHAVVHGNLACVYYEQGLIDLAIDTYRRAIELQPHFPDAYCNLANALKEKGSVAEAEDCYNTALRLCPTHADSLNNLANIKREQGNIEEAVRLYRKALEVFPEFAAAHSNLASVLQQQGKLQEALMHYKEAIRISPTFADAYSNMGNTLKEMQDVQGALQCYTRAIQINPAFADAHSNLASIHKDSGNIPEAIASYRTALKLKPDFPDAYCNLAHCLQIVCDWTDYDERMKKLVSIVADQLEKNRLPSVHPHHSMLYPLSHGFRKAIAERHGNLCLDKINVLHKPPYEHPKDLKLSDGRLRVGYVSSDFGNHPTSHLMQSIPGMHNPDKFEVFCYALSPDDGTNFRVKVMAEANHFIDLSQIPCNGKAADRIHQDGIHILVNMNGYTKGARNELFALRPAPIQAMWLGYPGTSGALFMDYIITDQETSPAEVAEQYSEKLAYMPHTFFIGDHANMFPHLKKKAVIDFKSNGHIYDNRIVLNGIDLKAFLDSLPDVKIVKMKCPDGGDNADSSNTALNMPVIPMNTIAEAVIEMINRGQIQITINGFSISNGLATTQINNKAATGEEVPRTIIVTTRSQYGLPEDAIVYCNFNQLYKIDPSTLQMWANILKRVPNSVLWLLRFPAVGEPNIQQYAQNMGLPQNRIIFSPVAPKEEHVRRGQLADVCLDTPLCNGHTTGMDVLWAGTPMVTMPGETLASRVAASQLTCLGCLELIAKNRQEYEDIAVKLGTDLEYLKKVRGKVWKQRISSPLFNTKQYTMELERLYLQMWEHYAAGNKPDHMIKPVEVTESA
Turning to B1, the binding entry in experiment [1] and in experiment [2] was “no binding” throughout.

For the origin of these results see article PMC7356634.
